Source: publication PMC4405354
These are yes or no findings as the source states them, for the method shown. In cells and extracts the contact can be indirect. For some assays here: Binding can be weak; no strength is given. Sequences can lack the tags named with a protein.

Legend:
FLAG-MFN2 (mitofusin 2) = target: T1, FLAG-MFN2 (mitofusin 2) (UniProt Q8R500); experiment: co-IP; anti-FLAG immunoprecipitation from lysates of transfected Mfn1-/- or Mfn2-/- MEFs; lysis in CPBS (6 mM CHAPS in PBS pH 7.4); antibody 1:50, 14 hr, 4°C; protein G-coated magnetic beads; SDS-PAGE and immunoblot
T1 sequence: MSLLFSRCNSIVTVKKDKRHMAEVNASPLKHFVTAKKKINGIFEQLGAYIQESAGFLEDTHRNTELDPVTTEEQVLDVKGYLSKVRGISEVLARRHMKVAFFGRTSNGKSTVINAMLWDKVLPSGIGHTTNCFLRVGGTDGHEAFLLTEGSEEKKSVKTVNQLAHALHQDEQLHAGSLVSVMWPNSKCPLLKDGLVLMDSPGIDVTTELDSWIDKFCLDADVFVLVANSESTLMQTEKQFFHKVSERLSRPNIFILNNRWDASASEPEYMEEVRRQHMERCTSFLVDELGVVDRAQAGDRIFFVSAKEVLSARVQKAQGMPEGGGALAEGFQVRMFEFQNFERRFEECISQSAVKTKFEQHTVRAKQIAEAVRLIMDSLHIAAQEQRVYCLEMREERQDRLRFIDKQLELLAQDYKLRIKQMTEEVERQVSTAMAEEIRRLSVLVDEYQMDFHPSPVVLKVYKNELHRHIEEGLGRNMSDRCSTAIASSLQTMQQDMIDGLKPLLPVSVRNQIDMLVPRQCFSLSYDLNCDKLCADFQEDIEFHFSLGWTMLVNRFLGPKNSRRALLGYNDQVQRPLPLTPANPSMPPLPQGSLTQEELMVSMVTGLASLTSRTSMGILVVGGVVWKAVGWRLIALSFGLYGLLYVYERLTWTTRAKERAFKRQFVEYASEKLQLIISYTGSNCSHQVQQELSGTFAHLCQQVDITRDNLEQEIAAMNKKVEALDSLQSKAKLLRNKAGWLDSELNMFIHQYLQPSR

[1] = target: T2, FLAG-MFN1 (mitofusin 1, wild type) (UniProt Q8R4Z9); experiment: as above
T2 sequence: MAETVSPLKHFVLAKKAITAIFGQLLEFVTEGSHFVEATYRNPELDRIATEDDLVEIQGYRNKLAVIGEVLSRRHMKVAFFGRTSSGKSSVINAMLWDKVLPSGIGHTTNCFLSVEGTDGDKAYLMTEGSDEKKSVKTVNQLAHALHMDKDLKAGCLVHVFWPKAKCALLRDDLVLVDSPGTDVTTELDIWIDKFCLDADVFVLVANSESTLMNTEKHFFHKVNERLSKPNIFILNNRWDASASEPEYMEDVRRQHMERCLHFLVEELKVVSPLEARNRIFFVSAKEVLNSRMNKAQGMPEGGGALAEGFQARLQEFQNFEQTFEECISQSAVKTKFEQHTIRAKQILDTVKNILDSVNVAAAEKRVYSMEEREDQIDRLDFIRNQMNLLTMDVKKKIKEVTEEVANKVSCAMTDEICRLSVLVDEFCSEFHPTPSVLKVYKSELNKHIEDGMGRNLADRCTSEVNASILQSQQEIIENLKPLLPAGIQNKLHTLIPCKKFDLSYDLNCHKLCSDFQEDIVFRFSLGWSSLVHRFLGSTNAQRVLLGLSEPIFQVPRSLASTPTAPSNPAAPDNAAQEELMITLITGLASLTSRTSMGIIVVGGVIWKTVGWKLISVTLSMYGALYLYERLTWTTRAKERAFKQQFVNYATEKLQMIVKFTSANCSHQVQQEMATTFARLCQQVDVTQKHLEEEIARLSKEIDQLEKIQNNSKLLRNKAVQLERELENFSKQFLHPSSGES

- binding (FLAG-MFN2 (mitofusin 2)): no binding
- binding [1]: binds
Substance: extracellular-signal-regulated kinase (ERK) (mouse (endogenous in MEFs)) (enzyme)
